Assay results taken from patent US4530932A, “4-(1H-indol-3-yl)-α-methyl-piperidine-1-ethanol derivatives” (Roussel Uclaf, priority 1982, dated 1985).
Counter-ions that a name gives are not always drawn. At least one read-out could not be matched to a standard name with certainty.

Test system: carotidien arterial pressure in rats
Assay: Hypotensive activity (carotidien arterial pressure in anesthesized rats)
Assay type: in vivo, rat (Wistar)
Details: rat, intravenous, 0,1 mg/kg
Protocol: The hypotensive activity was studied on male rats of the Wistar strain weighing about 300 g and anesthesized with 50 mg/kg of nembutal intraveinously. The test products were administered intraveinously by the jugular vein and the carotidien arterial pressure was measured before and after administration of the test compounds. The variations expressed in percentage of arterial pressure after administration with respect to the initial pressure is reported in Table IV.

Row | Compound | % Variation of arterial pressure after administration, 1 minute [%] | % Variation of arterial pressure after administration, 5 minutes [%] | % Variation of arterial pressure after administration, 10 minutes [%] | % Variation of arterial pressure after administration, 30 minutes [%]
1 | O=[N+]([O-])c1ccccc1OCC(O)CN1CCC(c2c[nH]c3ccccc23)CC1 (stereo not drawn) [Example 11, 4-(1H--indol-3-yl)-α-[2-nitrophenoxymethyl]-piperidine-1-ethanol hydrochloride] | -3 | -7 | -12 | -16
2 | C#CCc1ccccc1OCC(O)CN1CCC(c2c[nH]c3ccccc23)CC1 (stereo not drawn) [Example 16, 4-(1H--indol-3-yl)-α-[2-(prop-2-ynyl)-phenoxymethyl]-piperidine-1-ethanol hydrochloride] | -3 | -6 | -9 | -20
